According to paper PMC6484411:
These are yes or no findings as the source states them, for the method shown. For some of these results: Binding seen in cells or lysates may run through a third protein. Some binding calls cover weakened binding; strength is not graded here. For some of these results: Where a sequence is shown, tags or fusion partners need not be part of it.

Amino acid sequences for entries named in this document (tags omitted). A change or cut given only in a name is not applied to a line headed by its entry. Residues count along the entry.
UniProt P11835: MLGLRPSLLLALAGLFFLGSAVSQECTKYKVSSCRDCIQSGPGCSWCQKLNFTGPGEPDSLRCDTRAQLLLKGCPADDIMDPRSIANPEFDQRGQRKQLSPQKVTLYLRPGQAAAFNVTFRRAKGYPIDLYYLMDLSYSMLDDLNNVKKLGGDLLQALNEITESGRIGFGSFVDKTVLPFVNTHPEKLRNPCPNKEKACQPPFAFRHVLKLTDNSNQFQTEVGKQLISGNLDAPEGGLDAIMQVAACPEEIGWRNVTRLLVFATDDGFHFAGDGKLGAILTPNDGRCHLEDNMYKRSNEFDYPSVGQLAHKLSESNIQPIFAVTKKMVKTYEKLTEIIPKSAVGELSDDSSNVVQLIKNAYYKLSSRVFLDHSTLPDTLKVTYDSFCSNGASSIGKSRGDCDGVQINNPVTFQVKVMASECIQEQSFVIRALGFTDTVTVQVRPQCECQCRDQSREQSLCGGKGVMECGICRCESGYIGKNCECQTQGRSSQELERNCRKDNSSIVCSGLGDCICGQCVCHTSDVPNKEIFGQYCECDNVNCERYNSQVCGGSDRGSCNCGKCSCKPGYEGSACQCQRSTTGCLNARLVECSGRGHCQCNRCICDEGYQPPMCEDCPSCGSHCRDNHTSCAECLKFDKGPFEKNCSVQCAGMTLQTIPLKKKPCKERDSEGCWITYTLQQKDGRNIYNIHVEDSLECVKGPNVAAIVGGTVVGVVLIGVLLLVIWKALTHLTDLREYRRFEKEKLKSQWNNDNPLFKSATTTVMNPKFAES
1-447 fragment of CD18: residues 24-447 of P11835

Legend:
[1] = molecular target: mouse CD18 expressed in HEK293T cells stably expressing Mac-1 (mouse) (UniProt P11835); assay: co-IP; HEK293T cells (stably expressing Mac-1) transfected with plv-Myc, mindin-Myc or fragments for 48 h; RIPA extracts; protein G-agarose with anti-Myc or anti-HA (Figure 3E: anti-CD18 or anti-Myc) overnight at 4 C; three RIPA washes; immunoblot
[2] = molecular target: T1, mindin-Myc (full length mindin) (UniProt Q8BMS2); assay: as above
T1 sequence: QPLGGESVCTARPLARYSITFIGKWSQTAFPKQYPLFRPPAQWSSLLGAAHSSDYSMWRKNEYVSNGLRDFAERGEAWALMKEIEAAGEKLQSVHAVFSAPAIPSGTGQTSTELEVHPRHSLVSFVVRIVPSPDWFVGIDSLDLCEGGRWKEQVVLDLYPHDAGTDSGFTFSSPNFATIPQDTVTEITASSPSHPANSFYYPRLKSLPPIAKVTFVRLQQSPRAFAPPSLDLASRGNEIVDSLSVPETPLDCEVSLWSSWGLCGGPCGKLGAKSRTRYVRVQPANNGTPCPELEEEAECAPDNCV

[3] = molecular target: mouse CD18 expressed in HEK293T cells stably expressing Mac-1 (mouse) (UniProt P11835); assay: radioligand binding; 200 uL of ^131I-mindin (approximately 0.15 kBq/100 uL) added to 3 x 10^4 cells (RAW264.7 or HEK293T stably expressing Mac-1) in 48-well plates; different incubation periods; washed three times with PBS, collected in 1 mol/L NaOH, gamma-counter; cell uptake percentage; only the binder purified
[4] = molecular target: endogenous CD18 of Mac-1 on RAW264.7 macrophages (mouse (endogenous in RAW264.7)) (UniProt P11835); assay: as above
[5] = molecular target: mouse CD11b expressed in HEK293T cells stably expressing Mac-1 (mouse) (UniProt P05555); assay: as above
[6] = molecular target: endogenous CD11b of Mac-1 on RAW264.7 macrophages (mouse (endogenous in RAW264.7)) (UniProt P05555); assay: as above
[7] = molecular target: mouse CD18 expressed in HEK293T cells stably expressing Mac-1 (mouse) (UniProt P11835); assay: biodistribution of radiolabelled protein in xenografted mice; HEK293T control cells and HEK293T cells stably expressing Mac-1 grown intradermally in nude mice; ^131I-mindin (approximately 40 kBq/100 uL) by tail vein; tissues counted at 4 h or 24 h, %ID/g; only the binder purified
[8] = molecular target: mouse CD11b expressed in HEK293T cells stably expressing Mac-1 (mouse) (UniProt P05555); assay: as above
[9] = molecular target: T2, 1-324 amino acid fragment of CD11b (mouse) (UniProt P05555); assay: co-IP; HEK293T cells (stably expressing Mac-1) transfected with plv-Myc, mindin-Myc or fragments for 48 h; RIPA extracts; protein G-agarose with anti-Myc or anti-HA (Figure 3E: anti-CD18 or anti-Myc) overnight at 4 C; three RIPA washes; immunoblot
T2 sequence: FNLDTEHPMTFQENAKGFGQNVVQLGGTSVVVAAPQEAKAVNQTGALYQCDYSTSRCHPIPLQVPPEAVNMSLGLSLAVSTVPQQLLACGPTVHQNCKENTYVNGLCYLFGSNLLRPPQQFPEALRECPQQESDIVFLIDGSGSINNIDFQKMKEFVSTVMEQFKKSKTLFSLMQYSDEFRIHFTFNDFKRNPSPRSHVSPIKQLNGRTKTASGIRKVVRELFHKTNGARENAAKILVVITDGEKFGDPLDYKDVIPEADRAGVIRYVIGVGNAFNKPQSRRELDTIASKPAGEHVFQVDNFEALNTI

[10] = molecular target: 1-447 fragment of CD18 (mouse) (UniProt P11835); assay: as above
[11] = molecular target: mouse CD11b expressed in HEK293T cells stably expressing Mac-1 (mouse) (UniProt P05555); assay: as above

Measured: binding

mouse CD11b expressed in HEK293T cells stably expressing Mac-1 (from UniProt P05555 17-1153) (receptor)
binds: [1] | [2]

mouse CD18 expressed in HEK293T cells stably expressing Mac-1 (from UniProt P11835 24-771) (receptor)
binds: [2]

B1: Mouse recombinant mindin protein, ^131I-labelled (ligand, UniProt Q8BMS2 26-330)
chain: T1 sequence
modifications: ^131I label (chloramine-T radioiodination)
binds: [3] | [4] | [5] | [6] | [7] | [8]

B2: mindin-Myc (full length mindin) (protein, UniProt Q8BMS2 26-330)
chain: T1 sequence
binds: [1] | [9] | [10] | [11]
